Among all 330,000 compounds or so, about 610 (0.18%) were called active. Inconclusive results, whose numbers are uncertain, are shown with a selection of clear calls. Calls follow the shape of the full dose curve. Potencies beside an inconclusive call are fits to weak or partial responses and may not hold up.
Test: qHTS of Yeast-based Assay for SARS-CoV PLP; also: nearly all actives have a fitted effect of over 55% in size
Settings: S. cerevisiae expressing SARS-CoV PLpro; Potency: growth rescue; series mostly up to 32.9 µM
Potency is read from the fitted curve at half-maximal effect.

Row | SMILES | Potency
1 | COc1ccc(Cc2nnc(SCC(=O)NCCc3ccccc3)o2)cc1 | inconclusive: 20 µM [activator, single point]
2 | O=C(CNC(=O)c1ccco1)N/N=C/c1ccc(O)c([N+](=O)[O-])c1 | inconclusive: 3.16 µM [activator, single point]
3 | CCC(=O)NC(c1ccc(C)cc1)c1ccc2cccnc2c1O (configuration not stated) | inconclusive: 3.98 µM [activator, single point]
4 | CCOC(=O)C1CCCN(C(=O)c2cc(-c3ccncc3)nc3ccccc23)C1 (configuration not stated) | inconclusive: 20 µM [activator, single point]
5 | Cc1cc([N+](=O)[O-])ccc1NC(=O)c1csc(C)c1C | inconclusive: 4.47 µM [activator, single point]
6 | O=C(COc1ccc2ccc(=O)oc2c1)NC1CCN(Cc2ccccc2)CC1 | inconclusive: 20 µM [activator, single point]
7 | COC(=O)C1CCN(C(=O)CN2C(=O)NC3(CCC(C)CC3)C2=O)CC1 (configuration not stated) | inactive
8 | CC(=O)Nc1ccc(OC(=O)c2ccc(Cl)cc2)cc1 | inconclusive: 8.91 µM [activator, partial curve]
9 | CC(C)NC(=S)N/N=C/c1cccs1 | inconclusive: 11.2 µM [activator, partial curve]
10 | CCC(=O)N1CCCN(S(=O)(=O)c2ccc(C)cc2)C1c1ccc(OC)cc1 (configuration not stated) | inactive
11 | CCOC(=O)C(N)CSC1CC(=O)N(c2ccc(C(=O)OC)cc2)C1=O (configuration not stated) | inconclusive: 2.51 µM [activator, partial curve]
12 | COc1ccccc1N1CCN(C(c2cccs2)C(C)NC(=O)c2cccs2)CC1 (configuration not stated) | inconclusive: 3.16 µM [activator, single point]
13 | COc1ccc(C(=O)NCC(=O)OCc2ccc([N+](=O)[O-])cc2)cc1 | inactive
14 | CC(C)CN(C(=O)CSc1nc2ccccc2c(=O)n1C)C1CCS(=O)(=O)C1 (configuration not stated) | inconclusive: 3.16 µM [activator, single point]
15 | COc1ccc(C)c(Cn2c(-c3nonc3N)nc3ccccc32)c1 | inconclusive: 22.4 µM [activator, single point]
16 | Oc1ccccc1CN1CCN(C(O)(c2ccccc2)c2ccccc2)CC1 | inconclusive: 11.2 µM [activator, single point]
17 | CCN(CC)S(=O)(=O)c1ccc(S(=O)(=O)N2CCCC2C(=O)O)cc1 (configuration not stated) | active: 22.4 µM
18 | C=CCn1c(=N)n(CC(=O)c2ccc(Br)cc2)c2ccccc21 | inconclusive: 4.47 µM [activator, partial curve]
19 | N/C(=N\OC(=O)c1ccccc1Cl)c1cccnc1 | inactive
20 | O=C(NCCc1ccccc1)C(NS(=O)(=O)c1cccc2nsnc12)c1ccccc1 (configuration not stated) | inconclusive: 22.4 µM [activator, partial curve]
21 | CC(=O)Nc1ccc(NC(=O)C(C)OC(=O)c2c(C)nn(-c3ccccc3)c2Cl)cc1 (configuration not stated) | inactive
22 | CC(C)CNCC(=O)N1c2ccccc2Sc2ccccc21 | inconclusive: 7.94 µM [activator, partial curve]
23 | CCC(C)NC(=O)CSc1nc2cc(S(=O)(=O)N3CCOCC3)ccc2n1CC (configuration not stated) | inactive
24 | CN(C)/C=N/c1nc2ccc3c(c2s1)CCCC3 | inactive

Excerpt, nos. 8 to 10
Row | SMILES | Potency
8 | CC(=O)Nc1ccc(OC(=O)c2ccc(Cl)cc2)cc1 | inconclusive: 8.91 µM [activator, partial curve]
9 | CC(C)NC(=S)N/N=C/c1cccs1 | inconclusive: 11.2 µM [activator, partial curve]
10 | CCC(=O)N1CCCN(S(=O)(=O)c2ccc(C)cc2)C1c1ccc(OC)cc1 (configuration not stated) | inactive

Continued.

Row | SMILES | Potency
25 | CCc1nc2ccccc2n1CC(=O)OCC(=O)N(CC(C)C)c1c(N)n(Cc2ccccc2)c(=O)[nH]c1=O | inactive
26 | COc1ccc(OC)c(NS(=O)(=O)c2c(C(=O)N3CCCCCC3)c(C)n(C)c2C)c1 | inactive
27 | Cc1nc(N/N=C\c2ccc3c(c2)OCO3)sc1C | active: 7.08 µM
28 | Cn1nnnc1Sc1ncnc2scc(-c3cccs3)c12 | inactive
29 | C=CCSc1nnc(-c2cccc3ccccc23)o1 | inconclusive: 11.2 µM [activator, single point]
30 | CCOC(=O)c1c(NC(=O)CN2C(=O)NC3(CCCC3)C2=O)sc(C)c1CC | inactive
31 | CS(=O)(=O)N1CCCC(C(=O)Nc2cccc(F)c2)C1 (configuration not stated) | inconclusive: 10 µM [activator, single point]
32 | Cc1ccc(C)c(NC(=O)CN(C)C(=O)c2cccc(S(=O)(=O)N(C)C)c2)c1 | inactive
33 | O=C(NN=C1CCCC1)c1cc(Br)ccc1O | inactive
34 | CC1CCC(n2c(=S)[nH]c3ccccc3c2=O)CC1 (configuration not stated) | inconclusive: 15.8 µM [activator, partial curve]
35 | O=C(NC(=S)Nc1cccc2c(O)cccc12)c1ccco1 | inactive
36 | C[C@H](CO)N1C[C@H](C)[C@@H](CN(C)C(=O)Nc2ccc3c(c2)OCO3)Oc2c(NC(=O)Nc3ccc(C(F)(F)F)cc3)cccc2C1=O | inactive
37 | CCc1cccc(CC)c1NC(=S)NCCc1c(C)[nH]c2ccc(C)cc12 | inconclusive: 14.1 µM [activator, partial curve, poor fit]
38 | COc1ccc(OC)c(NC(=O)c2cc3c(cc2Cl)N2CCCCCC2=NS3(=O)=O)c1 | inconclusive: 0.398 µM [activator, full curve, poor fit]
39 | CCN(CC)CCNC(=O)c1cc(S(=O)(=O)N2CCc3ccccc32)cn1C | inactive
40 | COc1ccc(NC(=O)C2C3C=CC4(O3)C2C(=O)N(CCN2CCCCC2C)C4C(=O)NC2CCCC(C)C2C)cc1 (configuration not stated) | inactive
41 | O=C1CCCC/C1=C/Nc1ccc2c(c1)OCO2 | inconclusive: 4.47 µM [activator, single point]
42 | S=C1NC2(CCCCC2)N=C1c1ccccc1 | inconclusive: 20 µM [activator, partial curve]
43 | CCOC(=O)/C(C#N)=C1/C=CN(C)C=N1 | inconclusive: 2 µM [activator, partial curve]
44 | CCCCn1c2c(c(=N)c3c1CCC3)CCC2 | inconclusive: 20 µM [activator, single point]
45 | O=C(NC1CCCCC1)c1cc(Cl)nc2ccccc12 | inconclusive: 1.26 µM [activator, full curve, poor fit]
46 | Cc1ccc(OCC(=O)NNC(=O)c2cccnc2)cc1 | inconclusive: 12.6 µM [activator, single point]
47 | Cc1nccn1CCCN1C(=O)CNC1=S | active: 4.47 µM

From PubChem BioAssay AID485353 (National Center for Advancing Translational Sciences (NCATS), 2010)
